In the supplement of paper PMC10849652:
The other results are listed elsewhere or left out.

Chains of the proteins cited; added tags and fusions are not shown. Lines headed by an entry give the natural chain unless they say otherwise; changes in a name come on top.
UniProt Q9UBP0: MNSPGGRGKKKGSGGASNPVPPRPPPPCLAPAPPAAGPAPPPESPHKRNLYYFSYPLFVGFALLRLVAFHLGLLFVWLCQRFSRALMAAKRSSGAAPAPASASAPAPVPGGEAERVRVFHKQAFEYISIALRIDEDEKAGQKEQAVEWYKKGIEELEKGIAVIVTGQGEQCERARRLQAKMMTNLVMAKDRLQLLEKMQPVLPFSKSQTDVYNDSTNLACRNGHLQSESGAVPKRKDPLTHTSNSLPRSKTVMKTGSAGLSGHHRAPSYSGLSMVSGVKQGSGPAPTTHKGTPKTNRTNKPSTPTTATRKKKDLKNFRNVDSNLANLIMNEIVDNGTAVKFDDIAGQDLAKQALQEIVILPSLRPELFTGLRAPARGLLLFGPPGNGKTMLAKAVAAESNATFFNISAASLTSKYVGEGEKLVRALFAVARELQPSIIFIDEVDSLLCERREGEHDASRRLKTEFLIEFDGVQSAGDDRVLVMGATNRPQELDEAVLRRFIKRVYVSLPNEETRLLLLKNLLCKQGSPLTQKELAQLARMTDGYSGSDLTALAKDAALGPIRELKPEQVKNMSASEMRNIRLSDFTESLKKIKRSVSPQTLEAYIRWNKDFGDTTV
UniProt Q01082, whole entry, looked up: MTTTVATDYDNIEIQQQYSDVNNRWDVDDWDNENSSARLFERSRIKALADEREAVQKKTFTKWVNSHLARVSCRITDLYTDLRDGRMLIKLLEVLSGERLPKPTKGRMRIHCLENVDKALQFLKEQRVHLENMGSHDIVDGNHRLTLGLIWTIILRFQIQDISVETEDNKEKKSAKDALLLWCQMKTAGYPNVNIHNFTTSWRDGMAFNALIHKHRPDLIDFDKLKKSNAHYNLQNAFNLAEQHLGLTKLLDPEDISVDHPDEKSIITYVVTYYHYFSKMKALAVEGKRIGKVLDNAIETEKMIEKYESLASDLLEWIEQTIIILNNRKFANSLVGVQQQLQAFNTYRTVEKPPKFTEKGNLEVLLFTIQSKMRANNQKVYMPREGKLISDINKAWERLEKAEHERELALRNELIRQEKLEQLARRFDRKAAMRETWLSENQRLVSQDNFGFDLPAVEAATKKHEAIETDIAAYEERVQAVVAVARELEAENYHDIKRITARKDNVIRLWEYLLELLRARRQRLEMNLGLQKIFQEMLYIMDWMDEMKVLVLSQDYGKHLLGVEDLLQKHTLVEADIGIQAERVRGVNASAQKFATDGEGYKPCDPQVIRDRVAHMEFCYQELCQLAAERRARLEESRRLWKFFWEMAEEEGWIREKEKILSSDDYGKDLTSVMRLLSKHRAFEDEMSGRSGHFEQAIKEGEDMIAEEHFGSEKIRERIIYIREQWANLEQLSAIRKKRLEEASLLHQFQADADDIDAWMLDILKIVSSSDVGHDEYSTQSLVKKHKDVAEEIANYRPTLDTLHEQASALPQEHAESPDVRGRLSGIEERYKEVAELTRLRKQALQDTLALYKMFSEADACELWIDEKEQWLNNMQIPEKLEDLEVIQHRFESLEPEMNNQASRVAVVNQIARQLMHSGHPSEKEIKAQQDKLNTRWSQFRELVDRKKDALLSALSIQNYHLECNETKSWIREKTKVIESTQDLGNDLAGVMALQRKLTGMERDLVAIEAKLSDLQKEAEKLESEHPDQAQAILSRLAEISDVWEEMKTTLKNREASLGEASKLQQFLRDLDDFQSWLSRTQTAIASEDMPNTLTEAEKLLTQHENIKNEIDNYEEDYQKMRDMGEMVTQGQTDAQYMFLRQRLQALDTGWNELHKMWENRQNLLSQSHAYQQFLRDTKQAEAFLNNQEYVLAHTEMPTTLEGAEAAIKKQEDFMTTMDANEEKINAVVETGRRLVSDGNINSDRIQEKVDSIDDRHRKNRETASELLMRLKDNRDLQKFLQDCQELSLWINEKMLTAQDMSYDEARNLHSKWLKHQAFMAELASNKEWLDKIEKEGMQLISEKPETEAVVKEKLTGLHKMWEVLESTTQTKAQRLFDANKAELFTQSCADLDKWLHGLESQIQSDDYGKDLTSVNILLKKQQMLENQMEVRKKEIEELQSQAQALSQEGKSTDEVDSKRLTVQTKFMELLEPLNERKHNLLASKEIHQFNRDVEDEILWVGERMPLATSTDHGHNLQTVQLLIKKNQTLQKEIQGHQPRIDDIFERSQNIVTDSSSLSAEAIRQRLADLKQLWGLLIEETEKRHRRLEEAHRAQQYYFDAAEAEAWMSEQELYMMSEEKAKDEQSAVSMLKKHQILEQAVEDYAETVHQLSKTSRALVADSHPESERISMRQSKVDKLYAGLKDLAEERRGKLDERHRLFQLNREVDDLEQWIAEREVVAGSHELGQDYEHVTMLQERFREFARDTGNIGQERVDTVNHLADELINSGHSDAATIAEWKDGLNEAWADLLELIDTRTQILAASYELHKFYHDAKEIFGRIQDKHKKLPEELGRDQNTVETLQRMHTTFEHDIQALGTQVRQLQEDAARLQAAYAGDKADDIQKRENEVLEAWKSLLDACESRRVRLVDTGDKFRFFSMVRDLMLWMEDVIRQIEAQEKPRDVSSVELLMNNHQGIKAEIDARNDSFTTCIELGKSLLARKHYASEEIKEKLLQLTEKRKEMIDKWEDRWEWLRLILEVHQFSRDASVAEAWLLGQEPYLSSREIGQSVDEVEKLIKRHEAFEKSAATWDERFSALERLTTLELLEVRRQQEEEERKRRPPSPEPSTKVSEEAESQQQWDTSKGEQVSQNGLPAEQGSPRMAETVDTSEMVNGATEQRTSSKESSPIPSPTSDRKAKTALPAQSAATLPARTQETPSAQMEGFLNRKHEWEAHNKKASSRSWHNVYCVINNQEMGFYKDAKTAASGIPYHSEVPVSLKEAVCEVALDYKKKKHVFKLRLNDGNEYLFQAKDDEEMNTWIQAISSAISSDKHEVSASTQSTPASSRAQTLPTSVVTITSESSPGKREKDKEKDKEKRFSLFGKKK
UniProt P84103: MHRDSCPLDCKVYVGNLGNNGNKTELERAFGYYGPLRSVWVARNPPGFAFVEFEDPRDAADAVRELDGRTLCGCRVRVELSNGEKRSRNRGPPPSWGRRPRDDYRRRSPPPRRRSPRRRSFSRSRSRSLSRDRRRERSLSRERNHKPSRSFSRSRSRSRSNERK
UniProt Q5M775: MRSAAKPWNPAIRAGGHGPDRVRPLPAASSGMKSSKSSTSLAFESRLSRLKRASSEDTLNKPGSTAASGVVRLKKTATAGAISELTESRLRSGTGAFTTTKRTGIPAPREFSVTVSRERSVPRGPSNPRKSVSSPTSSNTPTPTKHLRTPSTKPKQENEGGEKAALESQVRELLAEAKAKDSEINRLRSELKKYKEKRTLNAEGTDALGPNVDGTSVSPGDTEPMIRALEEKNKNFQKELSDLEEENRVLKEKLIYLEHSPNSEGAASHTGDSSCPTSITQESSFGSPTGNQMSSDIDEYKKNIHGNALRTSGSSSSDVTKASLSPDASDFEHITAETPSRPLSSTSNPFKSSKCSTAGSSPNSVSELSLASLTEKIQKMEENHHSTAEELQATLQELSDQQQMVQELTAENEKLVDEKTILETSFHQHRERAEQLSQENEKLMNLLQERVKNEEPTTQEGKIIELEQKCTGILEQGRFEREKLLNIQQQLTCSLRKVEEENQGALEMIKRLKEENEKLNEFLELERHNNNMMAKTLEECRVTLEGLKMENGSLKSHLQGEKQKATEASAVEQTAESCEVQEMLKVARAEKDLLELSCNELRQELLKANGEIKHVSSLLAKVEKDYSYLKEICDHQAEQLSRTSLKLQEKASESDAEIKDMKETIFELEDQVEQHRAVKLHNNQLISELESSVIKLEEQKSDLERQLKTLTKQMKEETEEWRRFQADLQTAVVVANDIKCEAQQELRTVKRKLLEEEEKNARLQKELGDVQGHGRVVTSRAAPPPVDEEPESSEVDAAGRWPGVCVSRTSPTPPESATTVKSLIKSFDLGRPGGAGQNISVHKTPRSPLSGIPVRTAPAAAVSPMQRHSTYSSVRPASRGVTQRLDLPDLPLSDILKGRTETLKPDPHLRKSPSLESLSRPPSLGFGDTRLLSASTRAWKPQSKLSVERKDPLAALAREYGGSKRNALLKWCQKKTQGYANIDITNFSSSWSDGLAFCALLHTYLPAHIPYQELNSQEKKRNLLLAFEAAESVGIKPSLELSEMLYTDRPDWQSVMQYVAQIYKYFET
UniProt Q8WVM7: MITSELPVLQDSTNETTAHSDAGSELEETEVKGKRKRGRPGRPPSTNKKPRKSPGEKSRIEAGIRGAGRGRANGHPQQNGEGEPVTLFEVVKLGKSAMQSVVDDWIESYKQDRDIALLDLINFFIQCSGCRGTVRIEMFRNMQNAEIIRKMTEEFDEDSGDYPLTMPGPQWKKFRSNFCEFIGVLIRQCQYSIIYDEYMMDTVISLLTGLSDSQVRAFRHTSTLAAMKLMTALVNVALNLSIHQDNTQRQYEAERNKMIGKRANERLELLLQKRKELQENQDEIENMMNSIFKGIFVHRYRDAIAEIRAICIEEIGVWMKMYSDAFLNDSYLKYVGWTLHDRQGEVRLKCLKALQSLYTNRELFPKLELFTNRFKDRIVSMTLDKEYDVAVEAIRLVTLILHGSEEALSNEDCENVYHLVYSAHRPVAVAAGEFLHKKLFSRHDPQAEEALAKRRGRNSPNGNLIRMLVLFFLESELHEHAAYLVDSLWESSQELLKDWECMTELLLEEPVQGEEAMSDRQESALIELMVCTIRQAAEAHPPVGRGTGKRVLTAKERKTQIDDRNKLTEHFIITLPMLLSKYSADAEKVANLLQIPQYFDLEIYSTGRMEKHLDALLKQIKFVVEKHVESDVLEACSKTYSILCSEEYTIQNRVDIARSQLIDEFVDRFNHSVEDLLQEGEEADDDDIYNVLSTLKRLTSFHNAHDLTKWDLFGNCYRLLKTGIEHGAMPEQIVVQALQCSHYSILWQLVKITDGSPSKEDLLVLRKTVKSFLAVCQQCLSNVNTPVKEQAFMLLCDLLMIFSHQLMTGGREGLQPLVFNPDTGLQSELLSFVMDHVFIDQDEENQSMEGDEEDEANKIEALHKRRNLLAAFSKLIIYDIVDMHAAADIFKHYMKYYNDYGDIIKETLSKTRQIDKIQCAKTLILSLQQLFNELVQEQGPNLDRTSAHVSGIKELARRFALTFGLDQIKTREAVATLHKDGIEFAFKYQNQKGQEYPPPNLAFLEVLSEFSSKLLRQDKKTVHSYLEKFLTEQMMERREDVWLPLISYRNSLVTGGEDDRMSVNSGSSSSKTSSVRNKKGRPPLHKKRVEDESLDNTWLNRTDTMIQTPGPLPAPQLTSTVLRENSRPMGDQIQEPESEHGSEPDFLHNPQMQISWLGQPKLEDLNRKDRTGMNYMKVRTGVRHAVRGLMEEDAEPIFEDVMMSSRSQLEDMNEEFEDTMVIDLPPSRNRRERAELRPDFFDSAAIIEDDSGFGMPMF
UniProt P51692: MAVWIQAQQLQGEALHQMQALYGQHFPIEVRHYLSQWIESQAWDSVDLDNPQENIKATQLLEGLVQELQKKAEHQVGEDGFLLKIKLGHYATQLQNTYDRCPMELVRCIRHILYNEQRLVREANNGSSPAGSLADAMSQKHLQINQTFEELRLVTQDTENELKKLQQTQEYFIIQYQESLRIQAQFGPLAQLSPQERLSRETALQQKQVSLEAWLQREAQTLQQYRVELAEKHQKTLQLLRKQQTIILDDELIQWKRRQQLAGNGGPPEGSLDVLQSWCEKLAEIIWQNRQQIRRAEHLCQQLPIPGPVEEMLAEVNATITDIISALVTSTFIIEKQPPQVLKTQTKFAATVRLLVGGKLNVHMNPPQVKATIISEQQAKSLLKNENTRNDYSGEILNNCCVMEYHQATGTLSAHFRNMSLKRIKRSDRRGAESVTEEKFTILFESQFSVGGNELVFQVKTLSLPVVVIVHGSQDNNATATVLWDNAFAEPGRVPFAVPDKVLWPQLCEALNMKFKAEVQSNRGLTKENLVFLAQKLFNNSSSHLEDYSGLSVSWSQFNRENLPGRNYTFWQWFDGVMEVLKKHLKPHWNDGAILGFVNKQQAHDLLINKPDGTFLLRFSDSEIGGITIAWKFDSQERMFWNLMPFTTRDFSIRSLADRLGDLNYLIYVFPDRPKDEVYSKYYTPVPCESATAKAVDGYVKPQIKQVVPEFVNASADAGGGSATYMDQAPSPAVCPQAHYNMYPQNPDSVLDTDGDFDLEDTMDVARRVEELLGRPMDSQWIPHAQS
UniProt Q8WW59: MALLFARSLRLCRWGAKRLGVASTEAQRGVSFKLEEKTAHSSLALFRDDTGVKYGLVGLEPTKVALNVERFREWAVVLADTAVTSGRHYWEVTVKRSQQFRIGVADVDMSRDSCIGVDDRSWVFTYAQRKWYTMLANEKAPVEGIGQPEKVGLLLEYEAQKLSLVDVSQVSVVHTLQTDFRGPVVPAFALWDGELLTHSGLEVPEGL

Each target was assayed with Cc1nc(Nc2n[nH]c3c2CN(C(=O)N[C@H](CN(C)C)c2ccccc2)C3(C)C)c2sccc2n1 (assay: log2 fold change, soluble protein after heating vs DMSO (PISA); higher = thermal stabilisation; K562 cells, 10 uM, 30 min; active = over 0.2 and 3.5 SD of the protein, either way, in both replicates (recomputed)).
In short: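 Aliquots of K562 cells (2×10^6 cells/mL) treated with 10 μM compound for 30 min were heated for 3 min over 48°C-58°C. After pooling and extraction in PBS with 0.5% NP-40 at 4°C, soluble protein from a 21,000xg, 90 min spin was quantified by TMTpro 16plex LC-MS/MS with channel sums equalised. Thermal stability is expressed against control samples, from duplicates, as a log2 fold change.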

Target	log2 fold change
SPAST (UniProt Q9UBP0)	inactive: -0.054
SPHK1 isoform 2 (UniProt Q9NYA1)	inactive: 0.09
SRA1 (UniProt Q9HD15)	inactive: 0.008
STIM1 (UniProt Q13586)	inactive: -0.01
SPTBN1 (UniProt Q01082)	inactive: -0.145
SRSF3 (UniProt P84103)	active: -0.544
SPECC1 (UniProt Q5M775)	inactive: -0.133
STAG1 (UniProt Q8WVM7)	inactive: -0.097
SPPL2B (UniProt Q8TCT7)	inactive: -0.006
SRP54 (UniProt P61011)	inactive: -0.035
ST3GAL2 (UniProt Q16842)	inactive: -0.042
SRSF1 (UniProt Q07955)	inactive: -0.307
STAT1 (UniProt P42224)	inactive: -0.151
STAT5B (UniProt P51692)	inactive: -0.432
ST6GALNAC1 (UniProt Q9NSC7)	inactive: -0.065
STEAP3 isoform 2 (UniProt Q658P3)	inactive: -0.061
SPRYD4 (UniProt Q8WW59)	inactive: 0.038
SRGAP2 (UniProt O75044)	inactive: -0.095
SRPK2 isoform 2 (UniProt P78362)	inactive: 0.393
SPART (UniProt Q8N0X7)	inactive: -0.006
STK24 (UniProt Q9Y6E0)	inactive: 0.182
STAT3 (UniProt P40763)	inactive: -0.216
SPECC1L (UniProt Q69YQ0)	inactive: 0.032

Reformatted: entries from further up.
Target,log2 fold change
SPHK1 isoform 2 (UniProt Q9NYA1),inactive: 0.09
SPPL2B (UniProt Q8TCT7),inactive: -0.006
